Results from publication doi:10.1101/2021.10.11.462297.
No constants are given. Whether binding was seen depends on the method and setting. In cells and extracts the contact can be indirect. Some binding calls cover weakened binding; strength is not graded here. Tags and fused reporters may be left off the sequences shown.

The chains behind the UniProt entries cited, without tags or fusion partners.
UniProt P13010: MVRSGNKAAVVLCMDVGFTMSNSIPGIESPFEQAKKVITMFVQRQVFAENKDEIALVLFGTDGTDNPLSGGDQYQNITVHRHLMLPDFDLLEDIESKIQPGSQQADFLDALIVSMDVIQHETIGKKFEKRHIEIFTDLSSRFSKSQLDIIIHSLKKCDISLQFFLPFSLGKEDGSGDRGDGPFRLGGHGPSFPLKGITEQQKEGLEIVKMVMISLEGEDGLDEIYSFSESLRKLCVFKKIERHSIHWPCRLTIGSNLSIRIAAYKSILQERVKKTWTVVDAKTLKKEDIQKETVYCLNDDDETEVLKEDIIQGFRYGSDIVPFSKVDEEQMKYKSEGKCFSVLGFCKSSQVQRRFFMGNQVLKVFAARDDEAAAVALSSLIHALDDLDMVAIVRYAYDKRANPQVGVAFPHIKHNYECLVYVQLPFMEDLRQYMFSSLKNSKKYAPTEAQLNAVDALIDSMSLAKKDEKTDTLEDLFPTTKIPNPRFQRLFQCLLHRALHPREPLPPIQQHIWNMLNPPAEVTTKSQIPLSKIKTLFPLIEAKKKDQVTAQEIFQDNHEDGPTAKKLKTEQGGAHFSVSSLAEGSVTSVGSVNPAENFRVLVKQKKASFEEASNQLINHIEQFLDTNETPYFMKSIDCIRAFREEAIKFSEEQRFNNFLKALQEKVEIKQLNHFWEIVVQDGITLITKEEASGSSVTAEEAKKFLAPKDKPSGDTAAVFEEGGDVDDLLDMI
UniProt O60264: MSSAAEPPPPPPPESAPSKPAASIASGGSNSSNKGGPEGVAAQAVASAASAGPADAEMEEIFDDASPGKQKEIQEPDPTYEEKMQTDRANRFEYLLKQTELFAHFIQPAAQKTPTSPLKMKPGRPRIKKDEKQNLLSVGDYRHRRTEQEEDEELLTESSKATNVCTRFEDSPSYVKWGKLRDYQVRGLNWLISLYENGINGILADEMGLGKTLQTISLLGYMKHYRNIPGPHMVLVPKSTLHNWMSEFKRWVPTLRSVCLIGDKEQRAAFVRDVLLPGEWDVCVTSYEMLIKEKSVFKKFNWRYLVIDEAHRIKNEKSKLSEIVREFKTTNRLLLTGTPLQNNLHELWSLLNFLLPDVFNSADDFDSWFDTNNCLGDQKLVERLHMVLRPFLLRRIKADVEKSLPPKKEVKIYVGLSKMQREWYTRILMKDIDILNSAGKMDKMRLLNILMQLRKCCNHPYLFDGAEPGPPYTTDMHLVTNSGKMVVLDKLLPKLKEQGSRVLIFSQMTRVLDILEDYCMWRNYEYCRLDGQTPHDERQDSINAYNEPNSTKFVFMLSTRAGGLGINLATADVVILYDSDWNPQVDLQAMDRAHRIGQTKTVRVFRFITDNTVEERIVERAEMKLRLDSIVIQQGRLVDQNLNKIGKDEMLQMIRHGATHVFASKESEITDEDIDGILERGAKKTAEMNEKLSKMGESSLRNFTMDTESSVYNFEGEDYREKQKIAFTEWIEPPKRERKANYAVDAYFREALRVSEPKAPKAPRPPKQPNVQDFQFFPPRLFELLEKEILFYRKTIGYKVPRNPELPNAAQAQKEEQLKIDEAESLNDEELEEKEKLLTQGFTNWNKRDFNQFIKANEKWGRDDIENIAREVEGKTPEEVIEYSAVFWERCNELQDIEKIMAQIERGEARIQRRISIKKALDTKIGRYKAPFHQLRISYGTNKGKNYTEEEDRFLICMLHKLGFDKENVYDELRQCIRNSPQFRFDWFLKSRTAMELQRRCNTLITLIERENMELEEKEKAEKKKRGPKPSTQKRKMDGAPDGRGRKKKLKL

Columns and labels:
EGFP-FLAG-Ku80 = EGFP-FLAG-Ku80 (UniProt P13010); assay: co-IP
SMARCA5-FLAG-Myc = SMARCA5-FLAG-Myc (UniProt O60264); assay: co-IP

B1: HA-TRAIP (protein, UniProt Q9BWF2 1-469)
chain: MPIRALCTICSDFFDHSRDVAAIHCGHTFHLQCLIQWFETAPSRTCPQCRIQVGKRTIINKLFFDLAQEEENVLDAEFLKNELDNVRAQLSQKDKEKRDSQVIIDTLRDTLEERNATVVSLQQALGKAEMLCSTLKKQMKYLEQQQDETKQAQEEARRLRSKMKTMEQIELLLQSQRPEVEEMIRDMGVGQSAVEQLAVYCVSLKKEYENLKEARKASGEVADKLRKDLFSSRSKLQTVYSELDQAKLELKSAQKDLQSADKEIMSLKKKLTMLQETLNLPPVASETVDRLVLESPAPVEVNLKLRRPSFRDDIDLNATFDVDTPPARPSSSQHGYYEKLCLEKSHSPIQDVPKKICKGPRKESQLSLGGQSCAGEPDEELVGAFPIFVRNAILGQKQPKRPRSESSCSKDVVRTGFDGLGGRTKFIQPTDTVMIRPLPVKPKTKVKQRVRVKTVPSLFQAKLDTFLWS
EGFP-FLAG-Ku80
  binding: binds
SMARCA5-FLAG-Myc
  binding: binds
